Assay results published in patent US20100035257A1 (GENERAL HOSPITAL, published 2010).
Some entries share one result that the patent states for a list of compounds.

Assays:
MDA-MB-468 cells = test: Chemosensitivity assay (MTT cell viability); format: cell-based, human; details: TAp73-directed lentiviral shRNA vs vector control
Protocol: (§1) Chemosensitivity assay. Dose-response curves and IC50 values were determined using the methyl thiazolyl tetrazolium (MTT) cell viability assay as described previously (52). Cells were seeded into 96-well microtiter plates for 24 hours at a density of 5×10^3 per well. Serial drug dilutions were prepared in medium immediately before each assay and viable cell masses following 3 days or 5 days of drug exposure were determined by cell-mediated MTT reduction. Cell growth as well as drug activity were determined by measuring absorbance at 550 nm using an Anthos Labtec systems plate reader.

HCC-1937 cells = test: Chemosensitivity assay (MTT cell viability); format: cell-based, human; details: TAp73-directed lentiviral shRNA vs vector control
Protocol: as §1

Structure (SMILES): COc1cccc2c1C(=O)c1c(O)c3c(c(O)c1C2=O)C[C@@](O)(C(=O)CO)C[C@@H]3O[C@H]1C[C@H](N)[C@H](O)[C@H](C)O1 [doxorubicin]
- effect of TAp73 knockdown on the IC50 (MDA-MB-468 cells): < 2 fold
- effect of TAp73 knockdown on the IC50 (HCC-1937 cells): < 2 fold

Structure (SMILES): CC(=O)O[C@H]1C(=O)[C@@]2(C)[C@H]([C@H](OC(=O)c3ccccc3)[C@]3(O)C[C@H](OC(=O)[C@H](O)[C@@H](NC(=O)c4ccccc4)c4ccccc4)C(C)=C1C3(C)C)[C@]1(OC(C)=O)CO[C@@H]1C[C@@H]2O [paclitaxel]
- effect of TAp73 knockdown on the IC50 (MDA-MB-468 cells): < 2 fold
- effect of TAp73 knockdown on the IC50 (HCC-1937 cells): < 2 fold
